# In patent publication US20020025929A1, “METHOD OF BUILDING AND MAINTAINING BONE” (priority 1997, published 2002):
# Experiment: Body weight of ovariectomized rats
# Assay type: in vivo, Sprague-Dawley female rats
# Conditions: compound 1a 0.03-3 mg/kg, EE2, PTH (1-34) 10 μg/kg alone or in combination with compound 1a
# Description: In the first study, six-month old virgin Sprague-Dawley female rats weighing about 300 g each were maintained on a 12 hr light/12 hr dark cycle at 22° C. with ad lib access to food (TD 89222 diet containing 0.5% calcium and 0.4% phosphorus, Teklad, Madison, Wis., USA), Except for sham-operated control animals, bilateral ovariectomies were performed on the test animals. In the case of the sham-operated animals, the surgical ovariectomization technique was followed, but the ovaries were left intact to provide a control for assessing any effect which might be due to the surgical trauma.
# The ovariectomized (OVX) animals were randomized and permitted to lose bone for one month before beginning treatment for the following three months.
# The animal groups included: sham-operated animals(SHAM, n=8); bilaterally ovariectomized animals (OVX, n=7); bilaterally ovariectomized animals treated with 17α-ethynyl estradiol (Sigma Fine Chemicals, St. Louis, Mo., USA) dosed orally at a level of 0.1 mg/kg/day (n=7); and bilaterally ovariectomized animals treated with compound 1a at levels of 0.003, 0.03. 0.3 or 3 mg/kg/day, respectively, dosed orally (n=8 in each group).
# SHAM and OVX control animals were orally dosed by gavage with the vehicle or 1 mL/kg of body weight of 20% hydroxypropyl-β-cyclodextrin (Aldrich Chemical Co., Milwaukee, Wis., USA). Estrogen-treated control animals were administered 0.1 mg/kg/day of 17α-ethynyl estradiol by gavage. Animals treated with various doses of 1a were administered the appropriate dose by gavage in 1 mL/kg of body weight of 20% cyclodextrin.
row,Compound,body weight compared to OVX and Sham
1,"PTH: N-terminal 1-34 fragment of human parathyroid hormone, hPTH(1-34, Sequence ID No. 3); PTH/vehicle = 45 days PTH then vehicle",little effect compared to OVX
2,"COc1ccc(-c2sc3cc(O)ccc3c2Oc2ccc(OCCN3CCCCC3)cc2)cc1 [Compound 1a, 6-hydroxy-2-(4-methoxyphenyl)-3-[4-(2-piperidin-1-ylethoxy)phenoxy]-benzo[b]thiophene]",no effect on body weight compared to OVX
3,"C#C[C@]1(O)CC[C@H]2[C@@H]3CCc4cc(O)ccc4[C@H]3CC[C@@]21C [EE2, 17α-ethynyl estradiol]",lowered body weight below OVX to Sham levels
